Here are results for one substance from US5478810A (Behringwerke Aktiengesellschaft, priority 1990, dated 1995).

The data set is described as follows: general procedure: Fmoc solid-phase peptide synthesis; Fmoc-amide anchor resin; DIC/HOBt. The note with it: whole synthesis, scale 1 g resin (0.47 mmol/g).

In the case of Gly--Pro--Arg--Pro--Ala--NH2, the “final HPLC purity” value is reported as 95% pure.
